The results in this text go back to article PMC12376700.

Protein sequences, listed by entry. Tags and fused reporters are not part of them. Residues count along the entry.
UniProt O35593, residues 234-310: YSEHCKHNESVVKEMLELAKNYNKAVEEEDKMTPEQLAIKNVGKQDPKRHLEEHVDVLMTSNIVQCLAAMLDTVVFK

No constants are given. Whether binding was seen depends on the method and setting. Binding seen in cells or lysates may run through a third protein. Some results given as binding are weak or reduced against the parent protein; the word gives no strength. Tags and fused reporters may be left off the sequences shown.

This assay addresses T1, Myc-tagged SLC7A11 (UniProt Q9WTR6).
T1 sequence: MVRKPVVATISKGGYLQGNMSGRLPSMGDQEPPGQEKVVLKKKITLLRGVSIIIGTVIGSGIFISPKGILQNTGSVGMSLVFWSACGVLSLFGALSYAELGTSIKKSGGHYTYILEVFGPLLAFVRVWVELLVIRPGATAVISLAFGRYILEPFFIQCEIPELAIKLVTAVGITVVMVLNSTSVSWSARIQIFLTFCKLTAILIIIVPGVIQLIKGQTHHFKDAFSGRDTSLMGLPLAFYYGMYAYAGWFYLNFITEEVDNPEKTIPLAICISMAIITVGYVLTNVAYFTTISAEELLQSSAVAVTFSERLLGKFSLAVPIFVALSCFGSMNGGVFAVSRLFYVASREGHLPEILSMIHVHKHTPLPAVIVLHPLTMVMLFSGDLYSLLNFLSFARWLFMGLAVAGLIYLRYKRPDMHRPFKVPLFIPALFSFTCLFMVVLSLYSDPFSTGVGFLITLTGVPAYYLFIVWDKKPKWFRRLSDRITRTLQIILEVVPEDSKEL
In words: co-IP; plasmid-transfected MLO-Y4 cells (Flag-PSMD14 or its fragments with Myc-SLC7A11); immunoprecipitation with anti-Myc antibody or the indicated antibodies, immunoblot; for the full-length pair cells treated with MG132 (10 µM) for 8 h with PBS or DEX (100 µM).

On to “Flag-PSMD14 (234–310) (from UniProt O35593 234-310) (domain or fragment)”, for which the binding result is listed as “binds”.
